Paper PMC9584350
These are yes or no findings as the source states them, for the method shown. For some of these results: In cells and extracts the contact can be indirect. Some binding calls cover weakened binding; strength is not graded here.

Chains of the proteins cited; added tags and fusions are not shown. Lines headed by an entry give the natural chain unless they say otherwise; changes in a name come on top. Residues count along the entry.
UniProt P54646: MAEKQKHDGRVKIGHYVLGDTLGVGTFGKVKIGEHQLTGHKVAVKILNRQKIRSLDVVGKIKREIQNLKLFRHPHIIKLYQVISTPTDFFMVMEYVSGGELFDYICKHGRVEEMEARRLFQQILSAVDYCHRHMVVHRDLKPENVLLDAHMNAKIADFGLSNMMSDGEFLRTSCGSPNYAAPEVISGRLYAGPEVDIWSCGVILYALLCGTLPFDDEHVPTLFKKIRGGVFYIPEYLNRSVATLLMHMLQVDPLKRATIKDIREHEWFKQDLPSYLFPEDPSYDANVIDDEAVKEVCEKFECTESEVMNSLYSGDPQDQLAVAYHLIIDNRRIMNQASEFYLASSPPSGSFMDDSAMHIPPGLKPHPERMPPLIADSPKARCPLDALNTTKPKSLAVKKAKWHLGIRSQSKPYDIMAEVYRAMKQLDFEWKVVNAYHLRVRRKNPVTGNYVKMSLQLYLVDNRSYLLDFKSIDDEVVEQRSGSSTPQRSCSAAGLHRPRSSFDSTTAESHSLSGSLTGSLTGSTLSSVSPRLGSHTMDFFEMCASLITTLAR
GST–AMPK-C (amino acids 291–552 of AMPKα2): residues 291-552 of P54646
UniProt P62330: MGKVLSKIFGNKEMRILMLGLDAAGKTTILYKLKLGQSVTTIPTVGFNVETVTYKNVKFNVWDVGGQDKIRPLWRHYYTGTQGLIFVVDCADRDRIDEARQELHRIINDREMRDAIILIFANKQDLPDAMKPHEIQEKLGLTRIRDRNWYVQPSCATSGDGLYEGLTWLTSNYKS

Tests used:
[1] = molecular target: GST–AMPK-C (amino acids 291–552 of AMPKα2) (UniProt P54646); experiment: pull-down; GST–AMPK-C immobilised on glutathione beads, incubated with His–Arf6 WT preloaded with 1 mM GDP (30°C, 15 min); binding buffer as above, 1 h at 4°C; both purified
[2] = molecular target: GST–AMPK-C (amino acids 291–552 of AMPKα2) (UniProt P54646); experiment: pull-down; GST–AMPK-C immobilised on glutathione beads, incubated with His–Arf6 WT preloaded with 1 mM nonhydrolyzable GTPγS (30°C, 15 min); binding buffer as above, 1 h at 4°C; both purified
[3] = molecular target: FLAG–AMPKα2-WT (UniProt P54646); experiment: co-IP; HEK 293T cells transfected, lysed in 50 mM Tris-HCl pH 7.4, 150 mM NaCl, 1% NP-40; IP with anti-FLAG antibody and Protein A Sepharose, immunoblot

| binding [1] | binding [3] | Substance | binding [2] |
| --- | --- | --- | --- |
| binds |  | His–Arf6 (WT) (from UniProt P62330 1-175) | no binding (condition: Arf6 preloaded with 1 mM GTPγS) |
|  | binds | Arf6-T27N (myc-tagged, in cells) (from UniProt P62330 1-175) |  |
|  | no binding | Arf6-Q67L (myc-tagged, in cells) (from UniProt P62330 1-175) |  |
